Results are given in words; binding and its absence hold for the method and conditions named. Some binding calls cover weakened binding; strength is not graded here. Where a sequence is shown, tags or fusion partners need not be part of it. Values belong to the binder of their own block, whether it stands above or below them.
How the values were obtained:
[1] = target: T1, human IL-20R2, expressed alone on transfected cells (human) (UniProt Q6UXL0); test: cell surface AP binding studies on transfected Cos cells
T1 sequence (looked up): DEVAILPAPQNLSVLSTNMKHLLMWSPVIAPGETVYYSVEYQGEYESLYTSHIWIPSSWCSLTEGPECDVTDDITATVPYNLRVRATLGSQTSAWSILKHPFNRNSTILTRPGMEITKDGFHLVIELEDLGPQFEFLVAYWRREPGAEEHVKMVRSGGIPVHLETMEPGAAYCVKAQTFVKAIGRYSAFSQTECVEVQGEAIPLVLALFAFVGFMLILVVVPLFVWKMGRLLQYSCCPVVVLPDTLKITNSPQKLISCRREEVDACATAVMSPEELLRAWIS

[2] = target: T2, IL-22R1/IL-20R2 heterodimeric receptor on co-transfected cells (human) (UniProt Q6UXL0); test: as above
T2 sequence 1: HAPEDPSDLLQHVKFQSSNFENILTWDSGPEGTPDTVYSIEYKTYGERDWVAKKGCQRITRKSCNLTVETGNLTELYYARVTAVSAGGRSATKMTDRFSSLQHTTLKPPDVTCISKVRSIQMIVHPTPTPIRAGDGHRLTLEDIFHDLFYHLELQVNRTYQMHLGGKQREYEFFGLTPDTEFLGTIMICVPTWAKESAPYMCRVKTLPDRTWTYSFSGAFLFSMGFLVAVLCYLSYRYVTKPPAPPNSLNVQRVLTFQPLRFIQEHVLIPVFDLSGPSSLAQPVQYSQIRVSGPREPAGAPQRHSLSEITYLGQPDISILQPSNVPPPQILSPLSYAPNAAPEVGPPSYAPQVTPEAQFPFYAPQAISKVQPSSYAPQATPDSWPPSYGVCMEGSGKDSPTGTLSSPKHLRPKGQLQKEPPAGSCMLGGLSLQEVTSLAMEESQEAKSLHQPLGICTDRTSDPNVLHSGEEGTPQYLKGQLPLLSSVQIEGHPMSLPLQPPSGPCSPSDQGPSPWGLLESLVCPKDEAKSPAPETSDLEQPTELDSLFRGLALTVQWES
T2 sequence 2: T1 sequence (looked up)

[3] = target: T3, IL-20 receptor (IL-20R1/IL-20R2) heterodimeric receptor on co-transfected cells (human) (UniProt Q6UXL0); test: as above
T3 sequence 1: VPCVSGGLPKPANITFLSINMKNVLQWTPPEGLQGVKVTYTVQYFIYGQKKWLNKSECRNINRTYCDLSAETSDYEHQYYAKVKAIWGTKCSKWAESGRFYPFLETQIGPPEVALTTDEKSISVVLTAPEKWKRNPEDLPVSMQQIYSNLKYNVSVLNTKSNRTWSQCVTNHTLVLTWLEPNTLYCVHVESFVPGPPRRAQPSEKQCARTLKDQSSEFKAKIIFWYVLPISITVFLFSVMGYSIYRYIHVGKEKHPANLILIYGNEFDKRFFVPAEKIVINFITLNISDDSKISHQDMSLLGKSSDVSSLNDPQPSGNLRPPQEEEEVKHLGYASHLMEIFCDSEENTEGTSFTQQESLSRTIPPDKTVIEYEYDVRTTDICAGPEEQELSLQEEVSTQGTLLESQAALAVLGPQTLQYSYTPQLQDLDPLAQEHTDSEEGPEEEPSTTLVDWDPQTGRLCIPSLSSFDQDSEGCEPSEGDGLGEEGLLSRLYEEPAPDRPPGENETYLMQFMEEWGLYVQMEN
T3 sequence 2: T1 sequence (looked up)

[4] = target: T1, human IL-20R2, expressed alone on transfected cells (human); test: in situ cell surface AP staining of transfected Cos cells
[5] = target: T1, human IL-20R2, expressed alone on transfected cells (human); test: in situ cell surface AP staining of transfected Cos-E5 cells (FIG. 3C)
[6] = target: T1, human IL-20R2, expressed alone on transfected cells (human); test: quantitative cell surface AP binding assay on transfected Cos cells
[7] = target: T1, human IL-20R2, expressed alone on transfected cells (human); test: quantitative cell surface AP binding assay on transfected Cos-E5 cells (FIG. 3B)

binding [1]: binds
binding [2]: binds
binding [3]: binds
B1: Mob-5-AP (rat Mob-5 fused to alkaline phosphatase) (ligand, UniProt Q9JI24 29-183, looked up, not shown: large carriers)
chain: QEFRFGPCQVTGVVLPELWEAFWTVKNTVKTQDELTSVRLLKPQVLQNVSDAESCYLAHSLLKFYLNTVFKNYHSKIVKFKVLKSFSTLANNFLVIMSKLQPSKDNAMLPISDSARRRFLLYHRTFKQLDIEVALAKAFGEVDILLAWMQNFYQL

binding [4]: binds
binding [5]: binds
binding [6]: binds
binding [7]: binds
B2: human IL-24-AP fusion protein (ligand, UniProt Q13007 52-206, looked up)
chain: QEFHFGPCQVKGVVPQKLWEAFWAVKDTMQAQDNITSARLLQQEVLQNVSDAESCYLVHTLLEFYLKTVFKNYHNRTVEVRTLKSFSTLANNFVLIVSQLQPSQENEMFSIRDSAHRRFLLFRRAFKQLDVEAALTKALGEVDILLTWMQKFYKL
notes: Used as conditioned medium; also called Mob-5-alkaline phosphatase fusion protein; not shown: secreted human placental alkaline phosphatase (AP)

Reference: US20030078381A1 (VANDERBILT UNIVERSITY, published 2003)
